Measurements taken from publication doi:10.1101/2020.09.07.286526.
Results are given in words; binding and its absence hold for the method and conditions named. Binding seen in cells or lysates may run through a third protein. Some results given as binding are weak or reduced against the parent protein; the word gives no strength.

The chains behind the UniProt entries cited, without tags or fusion partners. Residues count along the entry.
UniProt Q9NXA8, residues 37-310: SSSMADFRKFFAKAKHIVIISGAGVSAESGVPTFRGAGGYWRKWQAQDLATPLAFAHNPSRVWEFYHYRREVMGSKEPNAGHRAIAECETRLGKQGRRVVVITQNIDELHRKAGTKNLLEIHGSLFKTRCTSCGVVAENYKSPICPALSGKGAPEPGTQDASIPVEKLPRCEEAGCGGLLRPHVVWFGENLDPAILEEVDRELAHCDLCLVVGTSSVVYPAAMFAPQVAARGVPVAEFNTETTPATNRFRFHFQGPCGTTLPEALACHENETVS

Target: Sirtuin 5 (SIRT5) (human (endogenous in A2058)) (UniProt Q9NXA8)
Experiment: co-IP

B1: MTHFD1L (methylenetetrahydrofolate dehydrogenase (NADP+ dependent) 1 like) (enzyme, UniProt Q6UB35 32-978)
chain: SSGGGGGGGGGREGLLGQRRPQDGQARSSCSPGGRTPAARDSIVREVIQNSKEVLSLLQEKNPAFKPVLAIIQAGDDNLMQEINQNLAEEAGLNITHICLPPDSSEAEIIDEILKINEDTRVHGLALQISENLFSNKVLNALKPEKDVDGVTDINLGKLVRGDAHECFVSPVAKAVIELLEKSGVNLDGKKILVVGAHGSLEAALQCLFQRKGSMTMSIQWKTRQLQSKLHEADIVVLGSPKPEEIPLTWIQPGTTVLNCSHDFLSGKVGCGSPRIHFGGLIEEDDVILLAAALRIQNMVSSGRRWLREQQHRRWRLHCLKLQPLSPVPSDIEISRGQTPKAVDVLAKEIGLLADEIEIYGKSKAKVRLSVLERLKDQADGKYVLVAGITPTPLGEGKSTVTIGLVQALTAHLNVNSFACLRQPSQGPTFGVKGGAAGGGYAQVIPMEEFNLHLTGDIHAITAANNLLAAAIDTRILHENTQTDKALYNRLVPLVNGVREFSEIQLARLKKLGINKTDPSTLTEEEVSKFARLDIDPSTITWQRVLDTNDRFLRKITIGQGNTEKGHYRQAQFDIAVASEIMAVLALTDSLADMKARLGRMVVASDKSGQPVTADDLGVTGALTVLMKDAIKPNLMQTLEGTPVFVHAGPFANIAHGNSSVLADKIALKLVGEEGFVVTEAGFGADIGMEKFFNIKCRASGLVPNVVVLVATVRALKMHGGGPSVTAGVPLKKEYTEENIQLVADGCCNLQKQIQITQLFGVPVVVALNVFKTDTRAEIDLVCELAKRAGAFDAVPCYHWSVGGKGSVDLARAVREAASKRSRFQFLYDVQVPIVDKIRTIAQAVYGAKDIELSPEAQAKIDRYTQQGFGNLPICMAKTHLSLSHQPDKKGVPRDFILPISDVRASIGAGFIYPLVGTMSTMPGLPTRPCFYDIDLDTETEQVKGLF
  binding: binds
